## Library screen at single concentrations

Chains of the proteins cited; added tags and fusions are not shown. Residues count along the entry.
UniProt Q8IDJ8, 1-583: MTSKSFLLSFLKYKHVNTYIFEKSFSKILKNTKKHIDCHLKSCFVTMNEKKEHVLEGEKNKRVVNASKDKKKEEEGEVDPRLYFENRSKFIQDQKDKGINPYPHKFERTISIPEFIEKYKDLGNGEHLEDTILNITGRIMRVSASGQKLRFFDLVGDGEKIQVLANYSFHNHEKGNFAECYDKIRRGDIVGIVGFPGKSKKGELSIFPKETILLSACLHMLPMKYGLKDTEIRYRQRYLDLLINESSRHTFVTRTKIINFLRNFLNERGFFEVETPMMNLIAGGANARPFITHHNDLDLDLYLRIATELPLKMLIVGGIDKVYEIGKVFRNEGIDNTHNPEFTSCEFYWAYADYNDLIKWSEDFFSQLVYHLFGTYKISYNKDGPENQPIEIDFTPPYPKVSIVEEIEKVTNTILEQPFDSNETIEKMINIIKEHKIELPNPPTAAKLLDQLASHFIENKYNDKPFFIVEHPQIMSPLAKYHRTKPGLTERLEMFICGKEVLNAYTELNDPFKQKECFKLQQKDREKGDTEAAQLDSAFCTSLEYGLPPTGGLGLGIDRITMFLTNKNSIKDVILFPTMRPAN
UniProt P9WPC5, whole entry: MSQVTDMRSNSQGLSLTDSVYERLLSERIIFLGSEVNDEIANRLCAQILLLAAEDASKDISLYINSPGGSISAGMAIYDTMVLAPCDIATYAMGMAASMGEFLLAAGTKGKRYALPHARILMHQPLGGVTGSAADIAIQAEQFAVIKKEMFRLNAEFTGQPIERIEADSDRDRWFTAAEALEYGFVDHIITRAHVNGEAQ
UniProt P9WPC3, whole entry partner: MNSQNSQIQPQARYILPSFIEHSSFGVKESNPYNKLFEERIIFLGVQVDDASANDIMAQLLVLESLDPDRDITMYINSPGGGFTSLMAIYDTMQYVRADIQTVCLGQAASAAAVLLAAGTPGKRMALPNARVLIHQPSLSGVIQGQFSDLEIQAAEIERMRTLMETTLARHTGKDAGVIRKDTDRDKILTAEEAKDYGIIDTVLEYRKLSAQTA
UniProt P9WFT3, whole entry: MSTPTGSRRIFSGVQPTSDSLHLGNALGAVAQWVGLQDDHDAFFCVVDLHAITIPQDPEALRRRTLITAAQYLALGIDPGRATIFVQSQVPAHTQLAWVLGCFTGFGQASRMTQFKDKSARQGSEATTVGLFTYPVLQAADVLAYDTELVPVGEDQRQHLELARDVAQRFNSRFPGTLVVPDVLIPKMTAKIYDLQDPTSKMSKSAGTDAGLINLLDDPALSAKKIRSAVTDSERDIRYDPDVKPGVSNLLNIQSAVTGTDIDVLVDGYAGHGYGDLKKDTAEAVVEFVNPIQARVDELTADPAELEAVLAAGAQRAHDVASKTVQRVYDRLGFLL

The filed quantity is “Percent Effect” (%). The record does not define 0% and 100%; most values in the screen are far below 50% and negative numbers occur (in some assays of this library far below -100). Compounds were drawn at random from those tested, without regard to their results.

A: 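Lysine-tRNA ligase, Plasmodium falciparum 3D7 (UniProt Q8IDJ8). Enzyme assay of the cytosolic lysyl-tRNA synthetase in 384-well plates, read by luminescence. Compounds at 30 µM. Higher reads as stronger inhibition, judged from the few compounds that gave an IC50. About 69,000 compounds were tested under these conditions; 0.071% (about 49) showed 50% or more at least once.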
B: 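ClpP1P2, Mycobacterium tuberculosis (UniProt P9WPC5 and UniProt P9WPC3). Protease assay of ClpP1P2, read by the AMC dye that it sets free. Compounds at 50 µM. Direction is inferred from only a few compounds that gave an IC50; most scored high, so higher reads as stronger inhibition. Most other retested compounds had strongly negative values. Size under these conditions: about 69,000 compounds, about 10 of them at 50% or above in at least one test.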
C: 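Enzyme assay of tryptophanyl-tRNA synthetase; the read-out is not stated. Target: Tryptophan-tRNA ligase, Mycobacterium tuberculosis (UniProt P9WFT3). Concentration: 10 µM. Higher most likely means stronger inhibition; the record gives no direction and few retests gave an IC50. Of about 65,000 compounds tested this way, about 64 (0.098%) reached 50% or more in at least one test.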

structure: N#Cc1c(F)cccc1Nc1cnn(CC(O)CN2CCOCC2)c1 (configuration not stated)
A: 4.396
B: -9.958
C: 2.699

structure: CC1(C)OCC2(CO1)CN(C(=O)c1cccc3ccccc13)C2
A: 3.814
B: 7.182
C: 3.116

structure: c1ccc(OCC2CC2)c(CNC2CCc3ncnn3C2)c1 (configuration not stated)
A: -0.5421
B: -7.485
C: -1.604

structure: CSc1nccc(N2CCCC(c3nccn3C(C)C)C2)n1 (configuration not stated)
A: 6.54
B: 5.887
C: 40.66

structure: Cc1ccccc1C1(O)CCN(C(=O)CCc2cn3ccccc3n2)C1 (configuration not stated)
A: 1.491
B: 11.85
C: 2.436

structure: Cc1noc(C)c1C(=O)N1CCCN(Cc2cscn2)CC1
A: 0.9753
B: -22.86
C: -5.517

structure: Cc1nnc(CN(Cc2ccco2)Cc2cccc3c2OCO3)n1C
A: 3.287
B: 4.563
C: -1.329

structure: CN(CCCO)c1nc(-c2ccc(C(N)=O)cc2)nc2c1CCNC2
A: 4.471
B: -7.111
C: -7.048

structure: Cc1oncc1C(=O)N1CC[C@H]2[C@H]1CCN2S(C)(=O)=O
A: 4.664
B: -9.994

structure: Cc1cc(CC(C)NC(=O)c2n[nH]c3c2CCC3)n[nH]1 (configuration not stated)
A: 10.15
B: -1.151
C: -4.558

structure: COc1ccc(-c2cn([C@H](CO)CC(C)C)nn2)cn1
A: 10.41
B: -22.82
C: 6.763

structure: CC1CCN(CC(=O)N(Cc2ccccc2)Cc2nccs2)C1=O (configuration not stated)
A: 1.001
B: -15.44
C: -6.421

structure: CC(C)c1nccn1C(C)C(=O)NC1Cc2ccccc2C1 (configuration not stated)
A: 6.301
B: 1.24
C: -4.739

structure: CCn1ncc2c1C(COCC1CC1)N(Cc1c(C)noc1C)CC2 (configuration not stated)
A: -1.112
B: 0.3114
C: -4.161

structure: CO[C@@H]1CCC[C@@H](NC(=O)c2cccc(F)c2)[C@H]1O
A: 2.94
B: -5.45
C: -4.634

structure: O=C(CCc1cc(F)ccc1F)NS(=O)(=O)c1ccc2c(c1)OCCO2
A: -0.8274
B: -3.138
C: 1.022

structure: CN(C1CCN(c2ccccn2)CC1)S(=O)(=O)c1cccs1
A: 5.176
B: -2.386
C: 1.763

structure: CC(C)CCn1nc2ccc(S(=O)(=O)N3CCOCC3)cn2c1=O
A: 0.3621
B: -1.184
C: 4.111

structure: c1cnnc(NCC2CN(Cc3ccon3)CCO2)c1 (configuration not stated)
A: 0.717
B: -9.015
C: 8.566

structure: CCN(C)C[C@@H]1CN(S(=O)(=O)c2cccc(C#N)c2)C[C@@H]1CO
A: 5.936
B: -0.05183
C: -6.101

structure: Cc1noc(C)c1CN(C)Cn1nccc1-c1cccnc1
A: -2.306
B: -5.297
C: 2.3

structure: O=C(NCc1cnc2n1CCN(c1ncc(F)cn1)CC2)C1CCC1
A: 5.168
B: -4.399
C: -4.191

structure: Cc1nc(CN(C)c2nc3c(cnn3C(C)(C)C)c(=O)[nH]2)cs1
A: 0.04658
B: -2.296
C: 7.869

structure: COc1cc(C(=O)NCCc2cccc(C)c2)on1
A: 9.712
B: -4.336
C: -1.821

structure: Cc1cccc(-c2noc(CN3CCC(c4ccn[nH]4)CC3)n2)c1
A: -1.271
B: -15.88
C: -3.367

structure: CC(C)n1cnc2c(N3CCCC3)nc(C3CCNCC3)cc21
A: -3.821
B: -6.91
C: 6.835

structure: NC(=O)c1cccc(CN2CCc3c(ncn3C3CC3)C2)c1
A: 2.015
B: -28.78
C: 8.736

structure: O=C(c1c(O)cc(F)cc1F)N1CCc2cnccc21
A: 1.116
B: -5.082
C: -0.1569

Once more, the final 4:

{"structure": "Cc1cccc(-c2noc(CN3CCC(c4ccn[nH]4)CC3)n2)c1", "A": -1.271, "B": -15.88, "C": -3.367}
{"structure": "CC(C)n1cnc2c(N3CCCC3)nc(C3CCNCC3)cc21", "A": -3.821, "B": -6.91, "C": 6.835}
{"structure": "NC(=O)c1cccc(CN2CCc3c(ncn3C3CC3)C2)c1", "A": 2.015, "B": -28.78, "C": 8.736}
{"structure": "O=C(c1c(O)cc(F)cc1F)N1CCc2cnccc21", "A": 1.116, "B": -5.082, "C": -0.1569}

From ChEMBL document CHEMBL3988442, “University of Dundee, Small-Polar-MMV Screening Library” (2021).